Measured values from PubChem BioAssay AID330 (DTP/NCI, 2004).
The list is a part of this screen's results and no random one: its compounds were picked by chemical class. Other doses and runs of a compound may be missing. T/C gives the treated animals as a percentage of the vehicle group. Some doses have a count of surviving animals in place of a T/C: the source holds a T/C of zero for them, seemingly a mark for toxic or unscored doses. Some doses without a T/C left all or most animals alive at the check, yet need not have been tolerated: survival well below the control is almost never listed, so the zero probably covers shortened survival too. Survivors were counted at the toxicity check, usually on the fifth day, unless a day is given; later deaths do not show. Schedules are NCI's codes, read here as Q, the interval in days (D) or hours (H), X, the number of doses. For survival time, the PubChem record calls one and a half times the control and up active, and a quarter to a half above the control has no call in these data; cut-offs in other NCI protocols can differ. Some T/C values carry the count of animals alive at the toxicity check (mostly the fifth day); without a count or a note in brackets, all were alive then. Some entries hold several experiments; the values are given in rising order. Some T/C values are marked as having no survivor count here; that says nothing about deaths at the dose. Some complexes appear as separate parts, the way the source draws them; their charges need not add up.

System: P388 leukemia ip, CD2F1 mice, survival T/C
Assay: NCI In Vivo Anticancer Drug Screen. Data for tumor model P388 Leukemia (intraperitoneal) in CD2F1 (CDF1) mice
Details: T/C endpoint: median survival time, higher T/C = longer survival
[1] = dose: 100.0 mg/kg/injection, schedule: Q04DX003 (ip), vehicle: saline
[2] = dose: 100.0 mg/kg/injection, schedule: Q04DX003 (ip), vehicle: Klucel (hydroxypropylcellulose) (HPC)
[3] = dose: 200.0 mg/kg/injection, schedule: Q04DX003 (ip), vehicle: Klucel (hydroxypropylcellulose) (HPC)
[4] = dose: 50.0 mg/kg/injection, schedule: Q01DX009 (ip), vehicle: saline with Tween-80
[5] = dose: 100.0 mg/kg/injection, schedule: Q01DX009 (ip), vehicle: saline with Tween-80
[6] = dose: 200.0 mg/kg/injection, schedule: Q01DX009 (ip), vehicle: saline with Tween-80
[7] = dose: 60.0 mg/kg/injection, schedule: Q01DX005 (ip), vehicle: saline with Tween-80
[8] = dose: 120.0 mg/kg/injection, schedule: Q01DX005 (ip), vehicle: saline with Tween-80
[9] = dose: 240.0 mg/kg/injection, schedule: Q01DX005 (ip), vehicle: saline with Tween-80

ClCCNCCCCCNCCCl
T/C [1]: 141 % of control | T/C (dose: 132.0 mg/kg/injection, schedule: Q04DX003 (ip), vehicle: saline): 163 % of control | T/C (dose: 200.0 mg/kg/injection, schedule: Q04DX003 (ip), vehicle: saline, evaluated on day 20): 166 % of control | T/C (dose: 200.0 mg/kg/injection, schedule: Q04DX003 (ip), vehicle: saline, evaluated on day 30): 195 % of control | T/C (dose: 300.0 mg/kg/injection, schedule: Q04DX003 (ip), vehicle: saline): 218 % of control | T/C (dose: 400.0 mg/kg/injection, schedule: Q04DX003 (ip), vehicle: saline): 133 % of control

O=[N+]([O-])C/C(=N\Nc1ccc([N+](=O)[O-])cc1[N+](=O)[O-])c1ccccc1
T/C (dose: 50.0 mg/kg/injection, schedule: Q01DX001 (ip), vehicle: saline with Tween-80): 105 % of control | T/C (dose: 100.0 mg/kg/injection, schedule: Q01DX001 (ip), vehicle: saline with Tween-80): 100 % of control | T/C (dose: 200.0 mg/kg/injection, schedule: Q01DX001 (ip), vehicle: saline with Tween-80): 100 % of control

CP(=O)(O)OP(C)(=O)O.[Zn+2]
T/C (dose: 12.5 mg/kg/injection, schedule: Q04DX002 (ip), vehicle: saline): 109 % of control [survivor count not shown] | T/C (dose: 25.0 mg/kg/injection, schedule: Q04DX002 (ip), vehicle: saline): 115 % of control [survivor count not shown]

C=C1C(=O)C2CCN1CC2.O=[N+]([O-])c1cc([N+](=O)[O-])c(O)c([N+](=O)[O-])c1
T/C (dose: 100.0 mg/kg/injection, schedule: Q01DX001 (ip), vehicle: Klucel (hydroxypropylcellulose) (HPC)): 98 % of control | T/C (dose: 200.0 mg/kg/injection, schedule: Q01DX001 (ip), vehicle: Klucel (hydroxypropylcellulose) (HPC)): 99 % of control [5 of 6 alive] | T/C (dose: 400.0 mg/kg/injection, schedule: Q01DX001 (ip), vehicle: Klucel (hydroxypropylcellulose) (HPC)): 107 % of control

Clc1ccc(N(CCBr)CCBr)cc1
T/C (dose: 50.0 mg/kg/injection, schedule: Q04DX003 (ip), vehicle: Klucel (hydroxypropylcellulose) (HPC)): 103 % of control | T/C [2]: 100 % of control [5 of 6 alive] | T/C [3]: 123 % of control [5 of 6 alive]

CN(C)C(=O)Oc1cccn(C)c1=O
T/C (dose: 12.5 mg/kg/injection, schedule: Q01DX009 (ip), vehicle: water): 115 % of control | T/C (dose: 25.0 mg/kg/injection, schedule: Q01DX009 (ip), vehicle: water): 99 and 103 % of control | T/C (dose: 50.0 mg/kg/injection, schedule: Q01DX009 (ip), vehicle: water): 100 and 105 % of control | T/C (dose: 100.0 mg/kg/injection, schedule: Q01DX009 (ip), vehicle: water): 108 [5 of 6 alive] and 109 % of control | T/C (dose: 200.0 mg/kg/injection, schedule: Q01DX009 (ip), vehicle: water): 123 and 132 % of control | survivor count (dose: 400.0 mg/kg/injection, schedule: Q01DX009 (ip), vehicle: water): 3 of 6

N/C(=N\[N+](=O)[O-])N(N)CCN(N)/C(N)=N/[N+](=O)[O-]
T/C [2]: 100 % of control [survivor count not shown] | T/C [3]: 106 % of control [survivor count not shown] | T/C (dose: 400.0 mg/kg/injection, schedule: Q04DX003 (ip), vehicle: Klucel (hydroxypropylcellulose) (HPC)): 103 % of control [survivor count not shown]

CCC(Cl)CSC(=O)SC(Cl)C(Cl)Cl (stereo unspecified)
T/C (dose: 50.0 mg/kg/injection, schedule: Q01DX009 (ip), vehicle: saline): 93 % of control | T/C (dose: 100.0 mg/kg/injection, schedule: Q01DX009 (ip), vehicle: saline): 93 % of control | T/C (dose: 200.0 mg/kg/injection, schedule: Q01DX009 (ip), vehicle: saline): 90 % of control [5 of 6 alive]

NC(=O)c1[nH]cnc1/N=N\N(CCCl)CCCl
T/C (dose: 12.5 mg/kg/injection, schedule: Q01DX009 (ip), vehicle: saline with Tween-80): 137 % of control [9 of 10 alive] | T/C (dose: 25.0 mg/kg/injection, schedule: Q01DX009 (ip), vehicle: saline with Tween-80): 137 % of control | T/C [4]: 175 % of control | T/C [5]: 269 % of control | T/C [6]: 233 % of control | T/C (dose: 400.0 mg/kg/injection, schedule: Q01DX009 (ip), vehicle: saline with Tween-80): 93 % of control

CN(N=O)C1=NC(c2ccccc2Cl)P(=O)(Nc2ncccn2)O1 (stereo unspecified)
T/C [7]: 100 % of control | T/C [8]: 100 % of control | T/C [9]: 106 % of control

O=[N+]([O-])c1cc([N+](=O)[O-])c(-c2cc([N+](=O)[O-])c(-c3c([N+](=O)[O-])cc([N+](=O)[O-])cc3[N+](=O)[O-])s2)c([N+](=O)[O-])c1
T/C [4]: 115 % of control | T/C [5]: 90 % of control [5 of 6 alive] | T/C [6]: 100 % of control

BrCCN(CCBr)c1ccc2ccccc2c1
T/C (dose: 6.25 mg/kg/injection, schedule: Q01DX009 (ip), vehicle: Klucel (hydroxypropylcellulose) (HPC)): 136 % of control [5 of 6 alive] | T/C (dose: 12.5 mg/kg/injection, schedule: Q01DX009 (ip), vehicle: Klucel (hydroxypropylcellulose) (HPC)): 148 % of control | T/C (dose: 25.0 mg/kg/injection, schedule: Q01DX009 (ip), vehicle: Klucel (hydroxypropylcellulose) (HPC)): 160 % of control [5 of 6 alive] | T/C (dose: 50.0 mg/kg/injection, schedule: Q01DX009 (ip), vehicle: Klucel (hydroxypropylcellulose) (HPC)): 95 [5 of 6 alive] and 156 % of control | survivor count (dose: 100.0 mg/kg/injection, schedule: Q01DX009 (ip), vehicle: Klucel (hydroxypropylcellulose) (HPC)): 6 of 6 | survivor count (dose: 200.0 mg/kg/injection, schedule: Q01DX009 (ip), vehicle: Klucel (hydroxypropylcellulose) (HPC)): 5 of 6

CC1(C)CC[P+](CCC[P+]2(c3ccccc3)CCC(C)(C)c3ccccc32)(c2ccccc2)c2ccccc21.F[P-](F)(F)(F)(F)F (stereo unspecified)
T/C (dose: 3.12 mg/kg/injection, schedule: Q01DX005 (ip), vehicle: saline with Tween-80): 91 % of control [4 of 6 alive] | T/C (dose: 6.25 mg/kg/injection, schedule: Q01DX005 (ip), vehicle: saline with Tween-80): 99 % of control | T/C (dose: 12.5 mg/kg/injection, schedule: Q01DX005 (ip), vehicle: saline with Tween-80): 96 % of control [4 of 6 alive]

O=[N+]([O-])c1cc([N+](=O)[O-])c2nonc2c1
T/C (dose: 15.0 mg/kg/injection, schedule: Q01DX005 (ip), vehicle: saline with Tween-80): 103 % of control | T/C (dose: 30.0 mg/kg/injection, schedule: Q01DX005 (ip), vehicle: saline with Tween-80): 103 % of control | T/C [7]: 103 [5 of 6 alive] and 105 % of control | survivor count [8]: 3 of 6 | survivor count [9]: 0 of 6

CC(C)OP(C)(=O)OC(C)C.CC(C)OP(C)(=O)OC(C)C.CC(C)OP(C)(=O)OC(C)C.CC(C)OP(C)(=O)OC(C)C.[Ni+2].[O-][Cl+3]([O-])([O-])O
T/C (dose: 50.0 mg/kg/injection, schedule: Q04DX003 (ip), vehicle: saline): 109 % of control [survivor count not shown] | T/C [1]: 114 % of control [survivor count not shown] | T/C (dose: 200.0 mg/kg/injection, schedule: Q04DX003 (ip), vehicle: saline): 94 % of control [survivor count not shown]

O=[N+]([O-])c1ccc(Sc2ccc([N+](=O)[O-])cc2[N+](=O)[O-])c([N+](=O)[O-])c1
T/C [4]: 104 % of control [survivor count not shown] | T/C [5]: 113 % of control [survivor count not shown] | T/C [6]: 121 % of control [survivor count not shown]
